Reference: PubChem BioAssay AID2685 (National Center for Advancing Translational Sciences (NCATS), 2010)
The other results are listed elsewhere or left out. These are further read-outs of the screen, such as a control signal, another cell line or another target. No call is given for them. Compounds called inactive in the main read-out are mostly missing here. Potencies come from curve fits of mixed quality, noted in brackets.

Assay: qHTS Assay for Lipid Storage Modulators in Drosophila S3 Cells;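 for cell number change: cells counted by Cell Tracker Red CMTPX staining in the red channel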
Conditions: BODIPY lipid droplet fluorescence, 18-24 h; for cell number change: measured here: cell count max response, cells fed with added oleic acid
Method in brief: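 Drosophila S3 cells got compounds at several concentrations plus oleic acid (400 uM solution). Laser-scanning cytometry with 488 nm excitation read lipid droplets at 500-530 nm and cells at 575-640 nm. Percent activity was relative to 20 uM Triacsin C.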

[1] = measured here: cell number channel AC50, cells fed with added oleic acid
[2] = measured here: lipid fluorescence (Fed channel) AC50, cells fed with added oleic acid

| SMILES | AC50 [1] | cell number change [%] | AC50 [2] |
| --- | --- | --- | --- |
| CC(C)Oc1cccc(C(=O)Nc2ccc(CN3CCOCC3)cc2)c1 | 0.411 µM [rising, partial curve] |  |  |
| O=C1N(Cc2ccccc2)CCCC12CCCN(Cc1ccccc1)C2=O |  | 14 | 6.51 µM [rising, partial curve] |
| COC(=O)CCS(=O)(=O)c1ccc(NC(C)=O)cc1 | 16.4 µM [falling, single point] | -70.9 |  |
| COC(=O)C(Cc1c[nH]c2ccccc12)N1CCS(=O)(=O)CC1 (centres undefined) | 2.31 µM [rising, partial curve, poor fit] | 12.3 | 8.2 µM [rising, partial curve, poor fit] |
| O=C(Nc1cc(S(=O)(=O)N2CCCCC2)ccc1N1CCOCC1)c1cc(=O)[nH]c2ccccc12 |  | -14.3 | 8.2 µM [falling, partial curve] |
| COc1cc(C(=O)NCCCNc2ccc([N+](=O)[O-])cc2)cc(OC)c1OC |  | 20.3 | 0.184 µM [rising, full curve, poor fit] |
| Cc1cc(C(=O)NC2CCCCC2)c(C)o1 |  | -15.7 |  |
| CC(C)Cc1csc(NC(=O)c2ccccc2Cl)c1C(=O)O | 32.6 µM [falling, single point] | -35.3 | 29.1 µM [falling, single point] |
| COc1cc(C(=O)OCC(=O)Nc2cc(C)on2)ccc1OCc1ccccc1Cl | 29.1 µM [falling, single point] | -43 | 0.00517 µM [rising, full curve, poor fit] |
| COc1ccc(Oc2ccc(S(=O)(=O)N3CCCCC3)cc2S(=O)(=O)N2CCCCC2)cc1 |  | 28.9 | 8.2 µM [rising, partial curve, poor fit] |
| CCOc1ccc2[nH]c(C)c(CN3CCN(CC)CC3)c(=O)c2c1 | 0.326 µM [falling, full curve, poor fit] | -57 | 0.291 µM [falling, full curve] |
| CCOC(=O)c1c(C)[nH]c(C(=O)OCC(=O)N2CC(C)OC(C)C2)c1C (centres undefined) |  | 15.3 |  |
| COc1ccc(C(=O)Nc2ccc(C(=O)O)cc2NC(=O)c2ccc(OC)cc2)cc1 |  | 3.9 | 4.61 µM [rising, single point] |
| CNC(=O)C12CC3CC(C1)CC(c1ccc(C)cc1)(C3)C2 |  | -1.17 |  |
| CC(CCc1ccccc1)NC(=O)CSc1cccc[n+]1[O-] (centres undefined) |  | -12.7 | 2.59 µM [falling, single point] |
| CCc1noc(C)c1C(=O)N1CCC(CCC(=O)Nc2cccc(C)c2)CC1 |  | -0.283 | 0.58 µM [falling, single point] |
| CCn1c(P(C)(=O)O)nc2cc(NC(=O)c3ccccc3Cl)ccc21 |  | 15.8 |  |
| O=C(O)CCC(=O)Nc1cccc(C(=O)Nc2ccc(Br)cc2)c1 |  | -19.2 |  |
| Cc1ccc(OCC(O)CNS(=O)(=O)c2ccccc2C(=O)O)cc1 (centres undefined) |  | -1.52 | 23.1 µM [rising, single point] |
| Cc1ccc(C(=O)CSc2ccccn2)cc1 |  | -9.64 | 3.66 µM [rising, single point] |
| O=C(NCc1ccccc1)C1C(=O)N(Cc2ccccc2)C(=O)C1C1(O)CCCC1 (centres undefined) |  | -1.4 |  |

Record cards, from the list above.
CC(C)Cc1csc(NC(=O)c2ccccc2Cl)c1C(=O)O is entered as AC50 [1]: 32.6 µM [falling, single point]; cell number change [%]: -35.3; AC50 [2]: 29.1 µM [falling, single point]
Cc1ccc(OCC(O)CNS(=O)(=O)c2ccccc2C(=O)O)cc1 (centres undefined) is entered as cell number change [%]: -1.52; AC50 [2]: 23.1 µM [rising, single point]

Continued.

| SMILES | AC50 [1] | cell number change [%] | AC50 [2] |
| --- | --- | --- | --- |
| CCCc1nnc(NC(=O)CCC(=O)N2CCN(Cc3ccc(F)cc3)CC2)s1 |  | 3.4 | 29.1 µM [falling, single point] |
| CC(=O)Nc1ccc(NC(=O)c2ccc(CN3CCc4ccccc4C3)cc2)cc1 | 0.517 µM [falling, partial curve, poor fit] |  |  |
| COc1cccc(N2CCN(C(=O)C3CCN(S(=O)(=O)c4ccc5c(c4)CC(C)N5C(C)=O)CC3)CC2)c1 (centres undefined) |  | -21.1 |  |
| c1ccc2c(c1)[nH]c1nc3nncn3nc12 |  | 7.26 | 0.058 µM [falling, full curve, poor fit] |
| Cn1c(=O)c2c(SCC(=O)NC3CCCC3)nc(CC(C)(C)C)nc2n(C)c1=O |  | 1.22 | 4.11 µM [rising, partial curve] |
| CCCCn1c(SCc2c(C)noc2C)nc2cc(S(N)(=O)=O)ccc21 | 29.1 µM [rising, single point] | 95 | 23.1 µM [rising, partial curve] |
| Cc1ccc(S(=O)(=O)N(C)CC(=O)Nc2ccncc2)cc1 | 6.51 µM [falling, single point] |  |  |
| OCCn1nc2c3ccccc3nc-2n(-c2ccccc2)c1=S |  | 20.9 | 8.2 µM [rising, partial curve] |
| Cc1ccc(NC2=C(NC(=O)c3ccccc3)C(=O)c3ccccc3C2=O)cc1Cl | 14.6 µM [falling, partial curve] | -72.1 | 11.6 µM [falling, partial curve] |
| CC(=O)c1cccc(S(=O)(=O)N(C)C2CCN(C)CC2)c1 |  | -24.7 | 6.51 µM [falling, partial curve] |
| CCCN1CCC(=O)N([C@H](CSc2ccccc2)CC(C)C)CC1 |  | 39.2 |  |
| CC1(C)CC2CC(C)(CN2/C=N/c2sc3c(c2C#N)CC(C)(C)NC3(C)C)C1 (centres undefined) |  | -25.7 | 7.31 µM [falling, partial curve] |
| O=C(Nc1ccccn1)c1cccs1 | 23.1 µM [falling, partial curve] | -83.9 |  |
| CN(C)c1ccc(N/C=C/C(=O)c2ccco2)cc1 |  |  | 0.58 µM [falling, single point] |
| COc1cc(CNCc2ccccc2Cl)ccc1OCC(=O)NC1CCCCC1 |  | 22.7 |  |
| CC1CC(C)CN(S(=O)(=O)c2ccc(F)c(C(=O)Nc3ccc(Cl)cc3F)c2)C1 (centres undefined) |  | 21.9 | 6.51 µM [rising, single point] |
| O=C(CN1C(=O)NC(Cc2ccccc2)C1=O)Nc1ccc(F)c(Cl)c1 (centres undefined) |  | 23.8 | 0.00517 µM [rising, full curve, poor fit] |
| Cn1c(SCc2nc3ccccc3[nH]2)nnc1-c1ccccn1 |  | -12.4 |  |
| CCOc1ccc(NS(=O)(=O)c2ccc3[nH]cc(C(=O)NCCOC)c(=O)c3c2)cc1 |  |  | 0.651 µM [falling, single point] |
| O=C(Nc1nccs1)c1cccc(N2C(=O)c3cccc4c([N+](=O)[O-])ccc(c34)C2=O)c1 | 3.66 µM [falling, full curve, poor fit] | -24.9 | 29.1 µM [falling, single point] |
